Experimental data as given in patent US20250041272A1, “COMPOSITIONS AND METHODS FOR TREATING CANCER VIA PTP1B INHIBITION” (priority 2021, published 2025).
At least one compound was matched to its structure with a doubt left.

Test system: Stat1 and MyD88 expression in pro-inflammatory macrophages
Test: Stat1 or Jak1/2 inhibitor treatment of pro-inflammatory macrophages, qRT-PCR
Type: cell-based, mouse
Settings: Fludarabine 50 μM, Momelotinib 50 nM
Procedure: Peritoneal macrophage isolation and culture. Peritoneal macrophages were done as described previously(65) from 8-week-old C57BL/6J mice (randomized, both male and female). PBS (Gibco) was injected in the mural peritoneal cavity to release the macrophages. After recovering, cells were centrifuged at 1200 rpm for 5 minutes, resuspended in DMEM high glucose, 10% FBS, 1% penicillin-streptomycin (Gibco) and plated. 2 hours after the last step, cells were washed with PBS and maintained in DMEM/F12 supplemented with 10% FBS, 1% penicillin-streptomycin and 20 ng/ml of M-CSF (Prospec) for 2 days. […]

With `Nc1nc(F)nc2c1ncn2[C@@H]1O[C@H](CO)[C@@H](O)[C@@H]1O` [Fludarabine] the Stat1 expression was “reduced Stat1 expression levels” and the MyD88 expression (compared with B16F10 transwell co-culture) was “comparable reduction of MyD88 expression”.
